Experimental data as given in publication PMC6828814, “A cryptic hydrophobic pocket in the polo-box domain of the polo-like kinase PLK1 regulates substrate recognition and mitotic chromosome segregation” (Scientific Reports, 2019).
No constants are given. Whether binding was seen depends on the method and setting. Binding seen in cells or lysates may run through a third protein.

Amino acid sequences for entries named in this document (tags omitted).
UniProt Q8NHV4: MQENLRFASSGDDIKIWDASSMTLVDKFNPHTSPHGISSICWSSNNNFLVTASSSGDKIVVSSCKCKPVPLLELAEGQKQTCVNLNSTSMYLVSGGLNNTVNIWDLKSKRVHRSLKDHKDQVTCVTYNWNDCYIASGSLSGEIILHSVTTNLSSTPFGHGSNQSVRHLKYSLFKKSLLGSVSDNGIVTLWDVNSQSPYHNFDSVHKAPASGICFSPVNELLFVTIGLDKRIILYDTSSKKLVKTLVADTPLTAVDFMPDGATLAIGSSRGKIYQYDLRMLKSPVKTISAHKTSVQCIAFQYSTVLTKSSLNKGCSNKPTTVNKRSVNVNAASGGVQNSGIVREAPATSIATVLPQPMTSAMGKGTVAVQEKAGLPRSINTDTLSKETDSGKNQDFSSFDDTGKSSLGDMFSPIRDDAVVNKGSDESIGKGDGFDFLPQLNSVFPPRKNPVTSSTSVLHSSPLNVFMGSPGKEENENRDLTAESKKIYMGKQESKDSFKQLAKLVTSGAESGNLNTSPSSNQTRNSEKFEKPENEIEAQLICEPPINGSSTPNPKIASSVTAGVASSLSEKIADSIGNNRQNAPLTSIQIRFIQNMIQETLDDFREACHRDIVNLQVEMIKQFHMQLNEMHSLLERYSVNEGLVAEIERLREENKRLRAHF

Biological target: GFP-PLK1AM (full-length human PLK1 with the phospho-substrate binding groove mutations H538A, K540M, N-terminally fused to enhanced GFP) (human) (UniProt P53350)
Experiment: co-IP; GFP-Trap beads pull down GFP-PLK1 (Wt/AAD/AM) from lysates of HeLa cells synchronised in mitosis by double thymidine block and release; immunoblot with anti-NEDD1; band intensity of the IP normalised to its input lane

binding: no binding
Substance: NEDD1 (Neural precursor cell Expressed Developmentally Downregulated gene1) (from UniProt Q8NHV4 1-660)
